Measurements taken from the supplement of paper PMC10382679.
Single values of this set are uncertain.

B1: Rpb7; numbered along this chain (parent)
chain: MFFIKDLSLNITLHPSFFGPRMKQYLKTKLLEEVEGSCTGKFGYILCVLDYDNIDIQRGRILPTDGSAEFNVKYRAVVFKPFKGEVVDGTVVSCSQHGFEVQVGPMKVFVTKHLMPQDLTFNAGSNPPSYQSSEDVITIKSRIRVKIEGCISQVSSIHAIGSIKEDYLGAI

Tests used:
[1] = variants of: B1; assay: log2 fold change of mutant abundance, UV-irradiated vs unirradiated; higher = more UV resistant (enriched after UV); conditions: with Saccharomyces cerevisiae rad7Δ rad26Δ; UV dose (J/m2): 10; genetic background: rad7Δ rad26Δ rpb7Δ + plasmid RPB7 library; outgrowth: 10 cell divisions
[2] = variants of: B1; assay: NOISeq theta enrichment statistic, UV-irradiated vs unirradiated (dimensionless); higher = more UV resistant (enriched after UV); conditions: with Saccharomyces cerevisiae rad7Δ rad26Δ; UV dose (J/m2): 10; genetic background: rad7Δ rad26Δ rpb7Δ + plasmid RPB7 library; outgrowth: 10 cell divisions

Variant	log2 fold change of mutant abundance [1]	NOISeq theta enrichment statistic [2]
D65Y	0.0223	0.0714
F17S	-0.118	-0.336
P116K	-0.953	-0.501
P116Y	0.523	0.315
Q131E	0.241	0.375
S155T	0.355	0.52
S155G	-0.369	-1.19
G89F	-0.162	-0.0797
G89T	-0.312	-0.262
V77C	0.266	0.15
K27T	0.042	0.0851
K27V	0.0675	0.0512
K27Y	1.39	0.607
I163T	-0.121	-0.218
I163L	0.159	0.16
G66E	-0.255	-0.525
Q96Y	0.107	0.109
Q96K	0.00727	0.0644
G84E	0.0401	0.0821
D88M	0.0107	0.00933
Y167C	-0.32	-0.459
G169A	0.0473	0.0566

Reformatted: entries from further up.
Variant | log2 fold change of mutant abundance [1] | NOISeq theta enrichment statistic [2]
F17S | -0.118 | -0.336
P116Y | 0.523 | 0.315
S155T | 0.355 | 0.52
V77C | 0.266 | 0.15
Q96K | 0.00727 | 0.0644
G84E | 0.0401 | 0.0821

Additional records follow:

Variant	log2 fold change of mutant abundance [1]	NOISeq theta enrichment statistic [2]
T120V	0.568	0.252
R75G	-0.0967	-0.167
N53H	-0.0811	-0.125
N53Y	0.0565	0.228
P15L	-0.197	-0.42
H97F	-0.153	-0.162
H97Q	-0.036	-0.213
H97S	-0.0398	-0.115
V92A	0.00858	0.0257
V92T	-0.221	-0.218
E134M	-0.908	-0.595
R58F	0.631	0.449
S16Y	-0.293	-0.426
V136A	0.199	0.658
K29N	0.0467	0.118
H14N	-0.235	-0.407
E85V	-0.0442	-0.17
L49M	1.35	0.574
I143R	0.296	0.207
K73R	-0.293	-0.169
G149R	1.74	2.35
N122M	-0.0728	-0.0368

Variant	log2 fold change of mutant abundance [1]	NOISeq theta enrichment statistic [2]
F99R	0.0339	0.0331
P105V	0.589	0.347
D166G	-0.374	-0.402
F70I	0.0993	0.391
F42Y	0.0701	0.462
S93D	-0.295	-0.21
G98D	0.0197	0.0217
G98A	-0.068	-0.0944
K80H	-0.178	-0.172
K80S	-0.325	-0.301
K80V	-0.0944	-0.0689
T28R	-0.111	-0.159
A76T	0.108	0.176
L114F	-0.186	-0.149
L114A	-0.327	-0.238
Q153E	0.064	0.0794
Q153L	-0.637	-1.49
I11V	0.0246	0.0706
E32A	0.0488	0.0709
M106T	0.172	0.42
K140M	0.0806	0.0404
K23L	1.28	0.552

Variant	log2 fold change of mutant abundance [1]	NOISeq theta enrichment statistic [2]
P81Y	-0.0987	-0.0734
V101Y	-0.353	-0.167
V101I	-0.0167	-0.0195
E69D	-0.0103	-0.0356
K146V	0.157	0.0811
P128E	-0.269	-0.18
P128A	0.0584	0.0984
K112M	-0.0586	-0.126
F82A	0.885	0.477
F82V	0.0401	0.114
Q57H	-0.0736	-0.443
T64N	0.0828	0.0763
I56R	-0.549	-0.34
S129G	-0.244	-0.136
R142G	-0.0471	-0.102
R142S	-0.193	-0.55
H113L	0.695	1.63
G104K	-0.162	-0.0878
H158R	-0.377	-1.05
D55C	0.0809	0.0497
